# Experimental data reported in paper PMC10878100.
# By UniProt entry, the sequences of proteins in these tests, tags left out.
# UniProt Q13616: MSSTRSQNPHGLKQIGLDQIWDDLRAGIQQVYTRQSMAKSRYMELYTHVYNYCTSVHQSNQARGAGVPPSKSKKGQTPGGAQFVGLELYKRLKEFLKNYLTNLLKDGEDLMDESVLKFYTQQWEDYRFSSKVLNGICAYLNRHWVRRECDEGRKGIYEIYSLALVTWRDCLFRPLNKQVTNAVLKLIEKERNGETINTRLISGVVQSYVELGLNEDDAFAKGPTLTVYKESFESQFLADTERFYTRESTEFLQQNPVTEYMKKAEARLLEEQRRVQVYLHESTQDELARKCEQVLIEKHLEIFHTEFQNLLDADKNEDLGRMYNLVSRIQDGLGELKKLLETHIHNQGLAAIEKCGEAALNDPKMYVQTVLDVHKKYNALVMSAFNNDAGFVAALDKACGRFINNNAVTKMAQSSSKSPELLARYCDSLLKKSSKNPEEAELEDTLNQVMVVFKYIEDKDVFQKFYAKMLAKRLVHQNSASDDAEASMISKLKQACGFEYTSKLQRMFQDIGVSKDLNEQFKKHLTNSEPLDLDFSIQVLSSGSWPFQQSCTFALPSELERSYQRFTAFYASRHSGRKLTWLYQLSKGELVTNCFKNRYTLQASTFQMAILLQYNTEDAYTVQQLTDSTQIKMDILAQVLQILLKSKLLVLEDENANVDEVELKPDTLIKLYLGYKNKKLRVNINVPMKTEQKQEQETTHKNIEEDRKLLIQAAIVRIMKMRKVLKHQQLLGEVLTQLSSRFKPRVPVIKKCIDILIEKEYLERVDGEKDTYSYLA
# UniProt P03129: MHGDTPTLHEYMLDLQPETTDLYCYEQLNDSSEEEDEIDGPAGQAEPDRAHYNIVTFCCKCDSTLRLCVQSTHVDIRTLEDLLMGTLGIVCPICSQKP
# No constants are given. Whether binding was seen depends on the method and setting. Binding seen in cells or lysates may run through a third protein. Some entries that bind do so weakly or less than the wild type.
# T1: membrane-associated ring-CH-type finger 8 (MARCHF8) (human (endogenous in SCC152)) (UniProt Q5T0T0)
# T1 sequence: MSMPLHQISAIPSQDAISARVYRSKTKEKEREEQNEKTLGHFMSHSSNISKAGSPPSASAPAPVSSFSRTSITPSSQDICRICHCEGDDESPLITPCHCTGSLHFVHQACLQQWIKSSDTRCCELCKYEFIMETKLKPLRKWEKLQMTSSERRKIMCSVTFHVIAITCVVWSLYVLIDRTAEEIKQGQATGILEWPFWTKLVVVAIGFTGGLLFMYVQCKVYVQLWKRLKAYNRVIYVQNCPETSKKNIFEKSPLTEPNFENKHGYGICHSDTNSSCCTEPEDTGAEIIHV
# B1: membrane-associated ring-CH-type finger 8 (MARCHF8) (enzyme, UniProt Q5T0T0 1-291)
# chain: MSMPLHQISAIPSQDAISARVYRSKTKEKEREEQNEKTLGHFMSHSSNISKAGSPPSASAPAPVSSFSRTSITPSSQDICRICHCEGDDESPLITPCHCTGSLHFVHQACLQQWIKSSDTRCCELCKYEFIMETKLKPLRKWEKLQMTSSERRKIMCSVTFHVIAITCVVWSLYVLIDRTAEEIKQGQATGILEWPFWTKLVVVAIGFTGGLLFMYVQCKVYVQLWKRLKAYNRVIYVQNCPETSKKNIFEKSPLTEPNFENKHGYGICHSDTNSSCCTEPEDTGAEIIHV
# What was measured:
# [1] = target: T1, membrane-associated ring-CH-type finger 8 (MARCHF8) (human (endogenous in SCC152)); test: co-IP; whole cell lysates (RIPA buffer) of SCC152 cells treated with MG132 (10 µM); 5 µg of anti-MARCHF8, anti-CUL1 or anti-UBE2L3 antibody on protein A/G magnetic beads, 1-2 mg lysate, overnight at 4°C; detection by western blotting
# [2] = target: cullin 1 (CUL1) (human (endogenous in SCC152)) (UniProt Q13616); test: as above
Molecule,binding [1],binding [2]
human papillomavirus 16 oncoprotein E7 (HPV16 E7) (from UniProt P03129 1-98),no binding,
B1,,binds
